{"source": "PubChem BioAssay AID1224827 (NIAID, 2016)", "test": "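Confirm genes whose knock-down changes LPS-driven TNF promoter activity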 (follow-up of hits)", "cells": "RAW264.7 G9 mouse macrophage reporter clone", "knock-down reagent": "single siRNA against mouse genes, 100 nM siRNA", "duration": "siRNA for 2 days, then LPS about 16 h", "conditions": "bacterial lipopolysaccharide (LPS), 10 ng/ml, cells fixed after overnight (about 16 h) stimulation", "measured": "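TNF promoter reporter red fluorescence in nuclei, background subtracted, normalised per plate and to non-targeting control siRNA, as z-scores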", "direction": "TNF reporter z-score, mean: higher = stronger Tnf promoter reporter signal", "rule for the call": "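Active siRNA: replicate-mean z-score of 2 or more, or -2 or less; no calls for control wells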", "note": "This is an unselected part of about 3,800 reagents tested. Of all reagents, about 2,200 (57%) are marked active. 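Active means a strong reporter change in either direction; calls are per siRNA, not per gene; qiagen siRNAs gave weaker effects.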 A number with no mark means an inactive call. The numbers tell different reagents against one gene apart. Not all columns of the deposit are shown."}
{"Gene":"Gxylt2 (glucoside xylosyltransferase 2)","siRNA no.":1,"TNF reporter z-score, mean":"5.56 (active)"}
{"Gene":"Gxylt2 (glucoside xylosyltransferase 2)","siRNA no.":2,"TNF reporter z-score, mean":-1.99}
{"Gene":"Gxylt2 (glucoside xylosyltransferase 2)","siRNA no.":3,"TNF reporter z-score, mean":"-5.74 (active)"}
{"Gene":"Gxylt2 (glucoside xylosyltransferase 2)","siRNA no.":4,"TNF reporter z-score, mean":0.219}
{"Gene":"Gxylt2 (glucoside xylosyltransferase 2)","siRNA no.":5,"TNF reporter z-score, mean":"-2.57 (active)"}
{"Gene":"Gxylt2 (glucoside xylosyltransferase 2)","siRNA no.":6,"TNF reporter z-score, mean":"-3.89 (active)"}
{"Gene":"Rag1 (recombination activating 1)","siRNA no.":1,"TNF reporter z-score, mean":"4.27 (active)"}
{"Gene":"Rag1 (recombination activating 1)","siRNA no.":2,"TNF reporter z-score, mean":1.43}
{"Gene":"Rag1 (recombination activating 1)","siRNA no.":3,"TNF reporter z-score, mean":"-5.67 (active)"}
{"Gene":"Rag1 (recombination activating 1)","siRNA no.":4,"TNF reporter z-score, mean":"3.69 (active)"}
{"Gene":"Rag1 (recombination activating 1)","siRNA no.":5,"TNF reporter z-score, mean":"2.83 (active)"}
{"Gene":"Rag1 (recombination activating 1)","siRNA no.":6,"TNF reporter z-score, mean":0.423}
{"Gene":"5330416C01Rik (RIKEN cDNA 5330416C01 gene)","siRNA no.":1,"TNF reporter z-score, mean":-0.223}
{"Gene":"5330416C01Rik (RIKEN cDNA 5330416C01 gene)","siRNA no.":2,"TNF reporter z-score, mean":"-2.71 (active)"}
{"Gene":"5330416C01Rik (RIKEN cDNA 5330416C01 gene)","siRNA no.":3,"TNF reporter z-score, mean":"-2.8 (active)"}
{"Gene":"5330416C01Rik (RIKEN cDNA 5330416C01 gene)","siRNA no.":4,"TNF reporter z-score, mean":"4.88 (active)"}
{"Gene":"5330416C01Rik (RIKEN cDNA 5330416C01 gene)","siRNA no.":5,"TNF reporter z-score, mean":"2.53 (active)"}
{"Gene":"5330416C01Rik (RIKEN cDNA 5330416C01 gene)","siRNA no.":6,"TNF reporter z-score, mean":-0.00565}
{"Gene":"Or8k35 (olfactory receptor family 8 subfamily K member 35)","siRNA no.":1,"TNF reporter z-score, mean":1.08}
{"Gene":"Or8k35 (olfactory receptor family 8 subfamily K member 35)","siRNA no.":2,"TNF reporter z-score, mean":0.869}
{"Gene":"Or8k35 (olfactory receptor family 8 subfamily K member 35)","siRNA no.":3,"TNF reporter z-score, mean":-1.67}
{"Gene":"Rit2 (Ras-like without CAAX 2)","siRNA no.":1,"TNF reporter z-score, mean":-1.95}
{"Gene":"Rit2 (Ras-like without CAAX 2)","siRNA no.":2,"TNF reporter z-score, mean":"-2.67 (active)"}
{"Gene":"Rit2 (Ras-like without CAAX 2)","siRNA no.":3,"TNF reporter z-score, mean":"-4.01 (active)"}
{"Gene":"Rit2 (Ras-like without CAAX 2)","siRNA no.":4,"TNF reporter z-score, mean":1.77}
{"Gene":"Rit2 (Ras-like without CAAX 2)","siRNA no.":5,"TNF reporter z-score, mean":"2.45 (active)"}
{"Gene":"Rit2 (Ras-like without CAAX 2)","siRNA no.":6,"TNF reporter z-score, mean":-0.468}
{"Gene":"Fbxw11 (F-box and WD-40 domain protein 11)","siRNA no.":1,"TNF reporter z-score, mean":"8.44 (active)"}
{"Gene":"Fbxw11 (F-box and WD-40 domain protein 11)","siRNA no.":2,"TNF reporter z-score, mean":-0.00504}
{"Gene":"Fbxw11 (F-box and WD-40 domain protein 11)","siRNA no.":3,"TNF reporter z-score, mean":"-3.44 (active)"}
{"Gene":"Fbxw11 (F-box and WD-40 domain protein 11)","siRNA no.":4,"TNF reporter z-score, mean":1.59}
{"Gene":"Fbxw11 (F-box and WD-40 domain protein 11)","siRNA no.":5,"TNF reporter z-score, mean":-0.619}
{"Gene":"Fbxw11 (F-box and WD-40 domain protein 11)","siRNA no.":6,"TNF reporter z-score, mean":"-2.89 (active)"}

Records listed so far whose gene name begins with G or g (6):
{"Gene":"Gxylt2 (glucoside xylosyltransferase 2)","siRNA no.":1,"TNF reporter z-score, mean":"5.56 (active)"}
{"Gene":"Gxylt2 (glucoside xylosyltransferase 2)","siRNA no.":2,"TNF reporter z-score, mean":-1.99}
{"Gene":"Gxylt2 (glucoside xylosyltransferase 2)","siRNA no.":3,"TNF reporter z-score, mean":"-5.74 (active)"}
{"Gene":"Gxylt2 (glucoside xylosyltransferase 2)","siRNA no.":4,"TNF reporter z-score, mean":0.219}
{"Gene":"Gxylt2 (glucoside xylosyltransferase 2)","siRNA no.":5,"TNF reporter z-score, mean":"-2.57 (active)"}
{"Gene":"Gxylt2 (glucoside xylosyltransferase 2)","siRNA no.":6,"TNF reporter z-score, mean":"-3.89 (active)"}
